In publication PMC11195615:
Results are given in words; binding and its absence hold for the method and conditions named. In cells and extracts the contact can be indirect. Some entries that bind do so weakly or less than the wild type.

The chains behind the UniProt entries cited, without tags or fusion partners.
UniProt P01106: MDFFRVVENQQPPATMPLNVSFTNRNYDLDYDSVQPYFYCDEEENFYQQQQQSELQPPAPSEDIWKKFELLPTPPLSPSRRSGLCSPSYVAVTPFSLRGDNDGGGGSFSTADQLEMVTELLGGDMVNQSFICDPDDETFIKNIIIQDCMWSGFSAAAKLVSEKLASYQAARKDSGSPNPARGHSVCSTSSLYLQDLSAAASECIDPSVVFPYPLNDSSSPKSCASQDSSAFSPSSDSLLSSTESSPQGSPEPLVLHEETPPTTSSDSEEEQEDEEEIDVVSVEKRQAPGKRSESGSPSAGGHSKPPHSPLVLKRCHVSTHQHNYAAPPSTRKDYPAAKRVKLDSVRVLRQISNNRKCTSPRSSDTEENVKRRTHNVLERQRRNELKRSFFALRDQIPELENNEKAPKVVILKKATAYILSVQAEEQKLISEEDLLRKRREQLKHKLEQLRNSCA

Target: c-MYC protein (human) (UniProt P01106)
Assay: co-IP; c-MYC immunoprecipitated from IOMM-Lee and CH157 meningioma cells; USP44 detected in the precipitate

binding: binds
B1: ubiquitin-specific peptidase 44 (USP44) (enzyme, UniProt Q9H0E7 1-712)
chain: MLAMDTCKHVGQLQLAQDHSSLNPQKWHCVDCNTTESIWACLSCSHVACGRYIEEHALKHFQESSHPVALEVNEMYVFCYLCDDYVLNDNTTGDLKLLRRTLSAIKSQNYHCTTRSGRFLRSMGTGDDSYFLHDGAQSLLQSEDQLYTALWHRRRILMGKIFRTWFEQSPIGRKKQEEPFQEKIVVKREVKKRRQELEYQVKAELESMPPRKSLRLQGLAQSTIIEIVSVQVPAQTPASPAKDKVLSTSENEISQKVSDSSVKRRPIVTPGVTGLRNLGNTCYMNSVLQVLSHLLIFRQCFLKLDLNQWLAMTASEKTRSCKHPPVTDTVVYQMNECQEKDTGFVCSRQSSLSSGLSGGASKGRKMELIQPKEPTSQYISLCHELHTLFQVMWSGKWALVSPFAMLHSVWRLIPAFRGYAQQDAQEFLCELLDKIQRELETTGTSLPALIPTSQRKLIKQVLNVVNNIFHGQLLSQVTCLACDNKSNTIEPFWDLSLEFPERYQCSGKDIASQPCLVTEMLAKFTETEALEGKIYVCDQCNSKRRRFSSKPVVLTEAQKQLMICHLPQVLRLHLKRFRWSGRNNREKIGVHVGFEEILNMEPYCCRETLKSLRPECFIYDLSAVVMHHGKGFGSGHYTAYCYNSEGGFWVHCNDSKLSMCTMDEVCKAQAYILFYTQRVTENGHSKLLPPELLLGSQHPNEDADTSSNEILS
